Measured values reported in paper PMC11955523, “Cryo-TEM structure of β-glucocerebrosidase in complex with its transporter LIMP-2” (Nature Communications, 2025).
Results are given in words; binding and its absence hold for the method and conditions named. In cells and extracts the contact can be indirect. A result given as binding can be weak or reduced; the word gives no strength.

Chains of the proteins cited; added tags and fusions are not shown. Lines headed by an entry give the natural chain unless they say otherwise; changes in a name come on top.
UniProt P04062: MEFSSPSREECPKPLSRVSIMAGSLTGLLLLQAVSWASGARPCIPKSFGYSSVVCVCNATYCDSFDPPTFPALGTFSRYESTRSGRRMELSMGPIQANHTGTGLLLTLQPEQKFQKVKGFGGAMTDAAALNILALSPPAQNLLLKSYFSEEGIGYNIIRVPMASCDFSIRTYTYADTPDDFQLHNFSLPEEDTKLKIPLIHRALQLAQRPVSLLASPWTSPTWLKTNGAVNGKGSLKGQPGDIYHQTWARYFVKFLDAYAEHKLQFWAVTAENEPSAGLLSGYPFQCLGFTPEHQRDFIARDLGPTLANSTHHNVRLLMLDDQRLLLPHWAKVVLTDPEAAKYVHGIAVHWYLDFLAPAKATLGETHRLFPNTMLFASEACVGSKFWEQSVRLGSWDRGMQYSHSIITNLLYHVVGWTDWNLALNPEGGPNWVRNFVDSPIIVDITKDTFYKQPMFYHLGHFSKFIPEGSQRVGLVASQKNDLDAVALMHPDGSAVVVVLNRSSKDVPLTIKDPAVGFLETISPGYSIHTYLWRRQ

Molecular target: T1, soluble LIMP-2 shuttle construct (sLIMP-2), secreted LIMP-2 ectodomain, wild type (human) (UniProt Q14108)
T1 sequence (chain, N-glycans at N45, N68, N105, N206, N224, N249, N304, N325, N412): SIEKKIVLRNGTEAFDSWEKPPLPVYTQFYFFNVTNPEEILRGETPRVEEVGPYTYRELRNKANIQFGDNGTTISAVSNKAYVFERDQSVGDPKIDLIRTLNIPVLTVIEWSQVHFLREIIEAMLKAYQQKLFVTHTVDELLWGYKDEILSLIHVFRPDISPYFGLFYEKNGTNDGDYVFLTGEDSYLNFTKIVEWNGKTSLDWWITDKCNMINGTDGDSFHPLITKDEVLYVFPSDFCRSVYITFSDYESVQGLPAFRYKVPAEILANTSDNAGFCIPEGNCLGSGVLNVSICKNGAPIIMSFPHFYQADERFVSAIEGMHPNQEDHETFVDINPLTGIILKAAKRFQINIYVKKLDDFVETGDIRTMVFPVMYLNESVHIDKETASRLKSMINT
Test: pull-down; Ni-NTA beads in conditioned medium of HEK 293F cells co-expressing GCase and His-tagged sLIMP-2 (72 h), over-night at 4 °C; washes with 20 mM imidazole, elution with 400 mM imidazole, pH 7.4; read by Western blot and GCase activity of the pulldown sample

For “GCase variant p.E388K (from UniProt P04062) (enzyme)”, which binding is on record?
Its binding is “binds”.
